PubChem BioAssay AID493014 (National Center for Advancing Translational Sciences (NCATS), 2011)
The other results are listed elsewhere or left out. Further columns of the screen follow, without active or inactive calls. Most of these compounds were active or inconclusive in the main read-out, so they are no random draw. The note in brackets gives the kind of curve behind each potency; many fits are weak.

Test: qHTS Assay to Find Inhibitors of Chronic Active B-Cell Receptor Signaling
Details: ABC-DLBCL IkBa-CBG/CBR reporter, luminescence ratio (green luciferase fused to IkBa over red control in TMD8 lymphoma cells), 4 h
Procedure, shortened: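 Concentration-response series (up to 46 uM) were applied to TMD8 dual-reporter cells for 4 h at 37C with doxycycline. Green/red ratio, after filter-overlap correction, defined %Activity; red signal alone was normalised to basal cells and zero luminescence.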

[1] = measured here: CBR red luminescence, cell number
[2] = measured here: IkBa-CBG green luminescence

SMILES	AC50 [1]	AC50 [2]
COCCCn1c(SCC(=O)NC(C)(C)C)nnc1-c1cccs1	15.8 µM [rising, single point]	–
CCN1C(=O)S/C(=C/c2ccc(Sc3nc4ccccc4[nH]3)o2)C1=O	23.1 µM [falling, single point]	–
Cc1cccc(Nc2ncnc3nc[nH]c23)c1C	9.2 µM [falling, partial curve]	–
O=C(Nc1sc2c(c1C(=O)O)CCCC2)c1ccccc1Cl	20 µM [falling, partial curve]	–
O=C(NCc1ccc2c(c1)OCO2)c1ccc(S(=O)(=O)N2CCCCC2)cc1	29.1 µM [rising, single point]	–
C/C(N)=C(/C#N)C(=O)CSc1nnc(Nc2ccccc2)s1	35.5 µM [falling, partial curve, poor fit]	–
O=C(NC1CCN(C(=O)N2c3ccccc3Sc3ccccc32)CC1)c1ccccc1F	7.08 µM [falling, partial curve]	–
O=C(CSc1nc(O)cc(=O)[nH]1)N1c2ccccc2Sc2ccccc21	17.8 µM [rising, partial curve, poor fit]	–
CCC1=NN(C(=O)c2ccccc2O)C(O)(c2ccccc2)C1 (centres undefined)	2.82 µM [falling, full curve]	–
CN(C)CCCN(C(=O)CCSc1ccccc1)c1nc2cc3c(cc2s1)OCO3	12.6 µM [falling, partial curve, poor fit]	–
COc1cccc(C(=O)NC(=S)Nc2ccc3c4c(cccc24)CC3)c1	3.16 µM [falling, partial curve, poor fit]	–
COc1ccc2c(=O)c(-c3cnn(-c4ccccc4)c3)c(C)oc2c1	4.47 µM [rising, full curve]	–
COc1ccc(NC(=O)c2nc3nccc(C)n3n2)cc1S(=O)(=O)N1CCOCC1	–	16.4 µM [falling, partial curve, poor fit]
Fc1ccc(CNCCC(Cc2ccccc2)c2ccco2)cc1 (centres undefined)	15.8 µM [falling, single point]	–
COc1ccccc1/C=C/C(=O)N1CCOCC1	0.517 µM [falling, partial curve, poor fit]	–
Cc1nn(-c2cccc(C(F)(F)F)c2)c(=O)c2noc(C)c12	2.51 µM [rising, partial curve, poor fit]	–
Cc1ccc(/C(N)=N/OC(=O)CCCc2ccccc2)cc1	5.62 µM [rising, partial curve, poor fit]	–
Cc1cccc(-n2ncc3c(NCCN4CCOCC4)ncnc32)c1	1.41 µM [falling, full curve]	–
Cc1c(C(=O)NC(=S)NCC(C)C)oc2ccccc12	14.6 µM [rising, partial curve]	–
Cc1ccc2nc(SCC(=O)c3c[nH]c4ccccc34)[nH]c2c1	14.1 µM [falling, partial curve, poor fit]	–
O=C(Cn1c(=O)oc2ccccc21)N1CCN(c2ccc(N3CCOCC3)nn2)CC1	29.1 µM [rising, single point]	–

SMILES	AC50 [1]	AC50 [2]
Cc1ccc(C(=O)NC(=S)NNC(=O)c2ccccc2O)cc1	10 µM [falling, partial curve, poor fit]	–
COc1ccc(NC(=O)Cn2ccc3c(OC)cccc3c2=O)cc1	3.98 µM [rising, full curve, poor fit]	–
CC1CCCC(n2c(=S)[nH]c3ccccc3c2=O)C1C (centres undefined)	31.6 µM [rising, single point]	–
O=C(COC(=O)c1c(F)cccc1F)Nc1ccc(N2CCCCC2)cc1	29.1 µM [rising, single point]	–
O=C(Nc1nnc(-c2cccs2)o1)c1cccc(Oc2ccccc2)c1	22.4 µM [falling, partial curve, poor fit]	15.8 µM [falling, single point]
CCOc1ncccc1C(=O)OCC(=O)c1cc(OC)c(OC)c(OC)c1	2.82 µM [rising, partial curve]	–
COc1cc(C(=O)OC(C)c2ccc(F)cc2)ccc1OCC(=O)N1CCOCC1 (centres undefined)	23.1 µM [rising, single point]	–
CCCc1cc(-c2ccc3c(c2)COc2c4ccccc4nn2-3)on1	3.66 µM [rising, partial curve, poor fit]	–
Cc1ccc(Cl)cc1N1CCN(C(=O)C2CCN(S(C)(=O)=O)CC2)CC1	5.62 µM [falling, single point]	–
COc1ccc(C(=O)N2CCN(CCNC(=O)C(=O)Nc3ccc(F)cc3)CC2)cc1	14.1 µM [falling, partial curve, poor fit]	–
O=C(CN1CCCCC1)Nc1cccc(Cl)c1Cl	29.1 µM [rising, single point]	–
Cc1cccc(-n2ncc3c(N4CC(C)CC(C)C4)ncnc32)c1 (centres undefined)	1.3 µM [rising, single point]	–
COc1ccc(-n2sc3ccc(F)cc3c2=O)cc1	14.6 µM [falling, partial curve]	–
COc1cc(C(=O)N/N=C(\C)Cc2ccccc2)cc(OC)c1OC	10.3 µM [rising, partial curve]	7.31 µM [falling, partial curve]
CC1(C)CC2(CC(c3ccccc3)c3ccc(O)cc3O2)NC(=S)N1 (centres undefined)	35.5 µM [falling, single point]	–
CCCOc1ccc(C(CC(=O)O)NC(=O)Cc2ccccc2)cc1 (centres undefined)	4.47 µM [rising, full curve, poor fit]	–
Cc1cc(O)c(-c2cc(C(=O)Nc3cccnc3)[nH]n2)cc1C	6.31 µM [falling, partial curve, poor fit]	–
Cc1ccc(C(=O)CCc2ccc(N)cc2)cc1	17.8 µM [rising, single point]	–
CN(C)Cc1cc(CN(C)C)c(O)c(CCc2ccccc2)n1	29.1 µM [falling, single point]	–
COC(=O)c1sccc1NC(=O)CNC(=O)c1ccccc1	12.6 µM [falling, partial curve]	–
N#Cc1c(NC(=O)CSc2nc(N)cc(=O)[nH]2)sc2c1CCCC2	8.91 µM [rising, partial curve, poor fit]	–

Look-ups from the list:
In AC50 [1], COc1cc(C(=O)OC(C)c2ccc(F)cc2)ccc1OCC(=O)N1CCOCC1 (centres undefined) has the entry 23.1 µM [rising, single point]
In AC50 [1], COC(=O)c1sccc1NC(=O)CNC(=O)c1ccccc1 has the entry 12.6 µM [falling, partial curve]
